Article PMC12040169 (PLOS Biology, 2025)
The list shows a part of the results.

Tested on: T1, CTL2-GFP (C. trachomatis L2/434/Bu, GFP-expressing)
T1 construct: L2/434/Bu, GFP-expressing
Set-up: species or system HeLa; Intracellular C. trachomatis growth in HeLa cells, bulk GFP fluorescence relative to DMSO
Settings: bulk GFP, single well; 28.5 h, 10 µM; inhibitor

SMILES	% of control remaining [%]
COc1ccc(-c2[nH]c3ncccc3c2CN2CCCC2)cc1 [CBK285331]	123.739
CCCc1cc(O)nc(SCCCCn2ccnc2C)n1 [CBK306359]	121.31
CCCCCC(=O)N[C@H]1CCC[C@H]1C(=O)O [CBK007807]	106.412
CN(C)c1nc(N(C)C)nc(N(C#N)S(=O)(=O)c2ccccc2Cl)n1 [CBK269036]	108.788
CCC1CCCCN1S(=O)(=O)c1ccc(NC(=O)Cn2c(=O)oc3ccccc32)cc1 (centres unmarked) [CBK268069]	116.674
O=C(CS(=O)(=O)c1ccccc1)Nc1cnc(-c2ccc(F)cc2)c(-c2ccoc2)n1 [CBK037168]	125.617
COc1ccc(CNc2nc[nH]n2)c(OC)c1OC [CBK288129]	121.404
Cc1ccc(S(=O)(=O)Nc2sccc2C(=O)O)cc1[N+](=O)[O-] [CBK042258]	96.4725
CCc1cccc(C)c1NC(=O)CN(c1cccc(Cl)c1Cl)S(=O)(=O)c1ccc(C)cc1 [CBK268666]	113.975
CC(C(=O)O)c1cc(C(=O)c2ccccc2)sc1-c1ccccc1 (centres unmarked) [CBK260968]	109.451
CC(=O)Nc1cccc(-n2nnnc2SCc2noc(C)n2)c1 [CBK304599]	93.0244
Cc1cc(C)n(C(C)CC(=O)NC(C)c2nc3ccccc3s2)n1 (centres unmarked) [CBK281469]	108.518
NNC(=O)C(Oc1ccccc1)Oc1ccccc1 [CBK261210]	103.093
O=C(Nc1ccc(-c2nc(-c3ccccc3)c3cc(NC(=O)c4cccs4)ccc3n2)cc1)c1cccs1 [CBK261547]	100
N=C1NC(=O)/C(=C\c2cccc(C(=O)O)c2)S1 [CBK264832]	100
COc1cccc(NC(=O)CCN2C(=O)c3ccccc3S2(=O)=O)c1 [CBK266003]	88.4265
O=C(NCc1ccc(-c2csnn2)cc1)c1cccnc1 [CBK149309]	124.209
O=C(NC(Cc1ccsc1)c1cccnc1)C1CCOC1 (centres unmarked) [CBK285116]	107.692
COc1ccc(-n2c(C)c(C#N)c3cc(Br)c(O)c(Br)c32)cc1 [CBK101113]	95.1234
O=C(O)CNCCC(=O)c1ccc([N+](=O)[O-])cc1 [CBK020544]	119.927
O=C(O)CCCn1cc(NC(=O)Cc2ccccc2)cn1 [CBK269821]	126.252
COc1cccc(/C=C/C2=NN(c3cccc(F)c3)C(c3cccc(OC)c3OC)C2)c1OC (centres unmarked) [CBK260983]	81.2862
Cc1nn(C)c(C)c1CCC(=O)N1CCCCC1c1ncc(-c2cccc(F)c2)[nH]1 (centres unmarked) [CBK291150]	124.705
COc1ccc(-c2nn(C)c(=O)c3ccccc23)cc1CNC(=O)c1cc([N+](=O)[O-])ccc1OC [CBK266229]	124.238
CC(=O)c1c(-c2cccc(C(=O)N(C)C3CCN(C)C3)c2)cnn1C (centres unmarked) [CBK306633]	124.665

In the list so far, these contain a COOH group:
SMILES	% of control remaining [%]
CCCCCC(=O)N[C@H]1CCC[C@H]1C(=O)O [CBK007807]	106.412
Cc1ccc(S(=O)(=O)Nc2sccc2C(=O)O)cc1[N+](=O)[O-] [CBK042258]	96.4725
CC(C(=O)O)c1cc(C(=O)c2ccccc2)sc1-c1ccccc1 (centres unmarked) [CBK260968]	109.451
N=C1NC(=O)/C(=C\c2cccc(C(=O)O)c2)S1 [CBK264832]	100
O=C(O)CNCCC(=O)c1ccc([N+](=O)[O-])cc1 [CBK020544]	119.927
O=C(O)CCCn1cc(NC(=O)Cc2ccccc2)cn1 [CBK269821]	126.252

(listing goes on)

SMILES	% of control remaining [%]
Cc1ccc(S(=O)(=O)NCCn2cnc([N+](=O)[O-])n2)cc1 [CBK266270]	144.822
COc1cnc(-c2cccc(C(F)(F)F)c2)c(NC(=O)Cc2ccccc2)n1 [CBK145308]	133.985
CC(C)C(=O)N1CCC(n2nc(-c3cccs3)oc2=O)CC1 [CBK282422]	116.627
COC(=O)c1oc(-c2ccc(OC)cc2)c(-c2ccc(OC)cc2)c1C(N)=O [CBK001957]	107.913
CN(C)CCNC(=O)c1cc(-c2ccncc2)nc2ccc(Br)cc12 [CBK267728]	152.988
Cc1ccccc1-n1nnnc1C(c1ccccc1)N(C)Cc1cccc([N+](=O)[O-])c1 (centres unmarked) [CBK262878]	97.3848
Cc1cccc(NC(=O)C(c2ccccc2)N2CCOCC2)c1 (centres unmarked) [CBK269331]	69.022
CCC(C)(C)c1ccc(S(=O)(=O)N2CCCN(Cc3cn(C)c4ccccc34)CC2)cc1 [CBK062871]	133.22
COc1cccc(/C=C/c2nc(C#N)c(NCCCN3CCOCC3)o2)c1 [CBK269506]	97.6684
O=C(NCc1csc2c1CCCC2)N1CCC(CO)CC1 [CBK307476]	86.6064
Nc1cccc(-c2cc(N3CCCC3CO)n3nccc3n2)c1 (centres unmarked) [CBK037049]	141.435
c1csc(-c2csc3ncnc(NCCCN4CCOCC4)c23)c1 [CBK267166]	142.773
Cc1cc(C)n(C(C)CC(=O)NCc2ccccc2-n2ccnc2)n1 (centres unmarked) [CBK281518]	140.394
COc1ccc(C2(C(=O)N3CCC(c4ccncc4)CC3)CC2)cc1 [CBK285476]	85.5449
CC(=O)Nc1cccc(C(=O)N2CCOC(CCc3ccccc3)C2)c1 (centres unmarked) [CBK304629]	128.333
Cc1cc(C)c(C(=O)N2CCN(CCNC(=O)C3CCCC3)CC2)[nH]1 [CBK305315]	120.935
CCC1(CC)OC(N[C@@H](C)c2ccccc2C(F)(F)F)=NC1=O [CBK122691]	126.367
CCN1CCN(C(=O)c2c(-c3ccccc3)noc2C)CC1 [CBK200251]	133.356
CC1=NN(c2ccc(Cl)c(Cl)c2)C(=O)C1 [CBK067761]	93.9954
CCCNC(=O)c1ccc(C)c(NC(=O)N[C@@H]2C[C@@H](CO)N(C)C2)c1 [CBK307451]	136.442
CCn1c(CC2CCN(C(=O)CCCn3cnnn3)CC2)nn(C)c1=O [CBK306537]	75.0661
O=C(Nc1cccc(N2CCNCC2)c1)c1coc2c1C(=O)CCC2 [CBK034113T]	109.576
CCC1=NC(c2ccccc2Cl)N(O)C1(C)C (centres unmarked) [CBK026466]	139.578
CC(NC(=O)N1CCSCC1)c1ccc2c(c1)CC(=O)N2 (centres unmarked) [CBK305093]	111.412
Cc1csc(C(Cc2ccsc2)NC(=O)C2CC2C)n1 (centres unmarked) [CBK282226]	119.415

Arranged by molecular weight (rising): some entries from above
SMILES	% of control remaining [%]
Cc1cccc(NC(=O)C(c2ccccc2)N2CCOCC2)c1 (centres unmarked) [CBK269331]	69.022
COC(=O)c1oc(-c2ccc(OC)cc2)c(-c2ccc(OC)cc2)c1C(N)=O [CBK001957]	107.913
CCc1cccc(C)c1NC(=O)CN(c1cccc(Cl)c1Cl)S(=O)(=O)c1ccc(C)cc1 [CBK268666]	113.975
